The target of this assay is T1, human ASGR-1 carbohydrate binding domain (CBD) (148-291) (human) (UniProt P07306).
T1 sequence: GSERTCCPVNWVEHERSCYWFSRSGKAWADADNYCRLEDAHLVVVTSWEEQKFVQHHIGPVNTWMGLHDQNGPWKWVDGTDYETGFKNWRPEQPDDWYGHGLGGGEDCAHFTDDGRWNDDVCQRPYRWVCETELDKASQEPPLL
Description: X-ray co-crystal structure; complex purified by size exclusion chromatography.

These are yes or no findings as the source states them, for the method shown. Some binding calls cover weakened binding; strength is not graded here.

B1: 4A2 Fab (Fab, V domains shown)
VH: QVQLVQSGTEVKKPGASVKVSCKASGYTFTNYDINWVRQATGQGLEWMGWMHPNSGNTGYAQKFQGRVTLTRDTSISTAYMELSSLRSEDTAVYYCASSSGWYYFDYWGQGTLVTVSS
VL: DIVMTQSPDSLAVSLGERATINCKSSQSILHSSNNNNYLAWFQQKPGQPPKLLLYWASTRESGVPDRFSGSGSGTDFTLTISSLQPEDVAVYYCQQYYNTPVTFGPGTKVGIKR
On to B1, for which the binding entry is “binds”.

B2: 194C10 Fab (Fab, V domains shown)
VH: QVQLQQWGAGLLKPSETLSLTCAVSGGSFRYYYWSWIRQPPGKGLEWFGEINHAGSTNYNPSLKSRVTISIDTSKNQFSLKLRSVTAADTAVYYCARDYGAFDIWGQGTMVTVSS
VL: EIVLTQSPGTLSLSPGERATLSCRASPSVNSGYLAWYQQKPGQTPRLLIFGASSRATGIPDRFSASGSGADFTLTISRLEPEDFAVYFCQQYESSPWTFGQGTKVEIKR
As to B2, the binding entry is recorded as “binds”.

B3: 194A4 Fab (Fab, V domains shown)
VH: QVQLVQSGTEVKKPGASLKVSCKASGYTFTVYYLNWVRQAPGQGLEWMGWINPNSGGTNYAQKFQGRVTMTRDTSISTAYMELSRLRSDDTAVYYCARGYDILTGWGQGTLVTVSS
VL: EIVLTQSPGTLSLSPGERATLSCRASRGVSNIYLAWYQQKPGQAPRLLIYGASNRATGIPDRFSGSGSGTDFTLTISRLEPEDFAVYYCQHNDYSMFTFGPGTKVDIKR
With B3, the binding result is listed as “binds”.

B4: 4H6 Fab (Fab, V domains shown)
VH: QVQLVQSGAEVKKPGASVKVSCKASGYTFTDYYLHWVRQAPGQGLEWMGWIHPNSGGTNYAQKFQGRVTMTRDTSISTAYMGLSSLRSDDTAVYYCARDGTSSFDYWGQGTLVTVSS
VL: DIQMTQSPSSVSASVGDRVTITCRASQGISRWLAWYQQKPGKAPKLLIYGASSLQSGVPSRFSGSGSGTDFTLTISSLQPEDFAIYYCQQANSFPFTFGPGTKVDIKG
In the case of B4, the binding entry is on record as “binds”.

B5: 72G9 Fab (Fab, V domains shown)
VH: EVQLVESGGGLVKPGGSLRLSCAASGFTFSSYSMNWVRQAPGKGLEWVSSISGSSSYIYYADSVKGRFTISRDNAKNSLYLQMNSLRAEDTAVYFCARGGSRGFDPWGQGTLVTVSS
VL: DIQMTQSPSSLSASVGDRVTITCRASQSITSYLNWYQQKPGKAPKLLIYTASSLQSGVPSRFSGSGSGTDFTLTISSLQPEDFATYYCQQSHSFPFTFGPGTKVDIKR
As to B5, the binding entry is reported as “binds”.

The values above are taken from patent US20170088620A1.
